Consider two molecules from patent publication US20250258165A1 (OSAKA UNIVERSITY, published 2025).

Chains of the proteins cited; added tags and fusions are not shown. Residues count along the entry.
UniProt B2RWS6, residues 2-2412: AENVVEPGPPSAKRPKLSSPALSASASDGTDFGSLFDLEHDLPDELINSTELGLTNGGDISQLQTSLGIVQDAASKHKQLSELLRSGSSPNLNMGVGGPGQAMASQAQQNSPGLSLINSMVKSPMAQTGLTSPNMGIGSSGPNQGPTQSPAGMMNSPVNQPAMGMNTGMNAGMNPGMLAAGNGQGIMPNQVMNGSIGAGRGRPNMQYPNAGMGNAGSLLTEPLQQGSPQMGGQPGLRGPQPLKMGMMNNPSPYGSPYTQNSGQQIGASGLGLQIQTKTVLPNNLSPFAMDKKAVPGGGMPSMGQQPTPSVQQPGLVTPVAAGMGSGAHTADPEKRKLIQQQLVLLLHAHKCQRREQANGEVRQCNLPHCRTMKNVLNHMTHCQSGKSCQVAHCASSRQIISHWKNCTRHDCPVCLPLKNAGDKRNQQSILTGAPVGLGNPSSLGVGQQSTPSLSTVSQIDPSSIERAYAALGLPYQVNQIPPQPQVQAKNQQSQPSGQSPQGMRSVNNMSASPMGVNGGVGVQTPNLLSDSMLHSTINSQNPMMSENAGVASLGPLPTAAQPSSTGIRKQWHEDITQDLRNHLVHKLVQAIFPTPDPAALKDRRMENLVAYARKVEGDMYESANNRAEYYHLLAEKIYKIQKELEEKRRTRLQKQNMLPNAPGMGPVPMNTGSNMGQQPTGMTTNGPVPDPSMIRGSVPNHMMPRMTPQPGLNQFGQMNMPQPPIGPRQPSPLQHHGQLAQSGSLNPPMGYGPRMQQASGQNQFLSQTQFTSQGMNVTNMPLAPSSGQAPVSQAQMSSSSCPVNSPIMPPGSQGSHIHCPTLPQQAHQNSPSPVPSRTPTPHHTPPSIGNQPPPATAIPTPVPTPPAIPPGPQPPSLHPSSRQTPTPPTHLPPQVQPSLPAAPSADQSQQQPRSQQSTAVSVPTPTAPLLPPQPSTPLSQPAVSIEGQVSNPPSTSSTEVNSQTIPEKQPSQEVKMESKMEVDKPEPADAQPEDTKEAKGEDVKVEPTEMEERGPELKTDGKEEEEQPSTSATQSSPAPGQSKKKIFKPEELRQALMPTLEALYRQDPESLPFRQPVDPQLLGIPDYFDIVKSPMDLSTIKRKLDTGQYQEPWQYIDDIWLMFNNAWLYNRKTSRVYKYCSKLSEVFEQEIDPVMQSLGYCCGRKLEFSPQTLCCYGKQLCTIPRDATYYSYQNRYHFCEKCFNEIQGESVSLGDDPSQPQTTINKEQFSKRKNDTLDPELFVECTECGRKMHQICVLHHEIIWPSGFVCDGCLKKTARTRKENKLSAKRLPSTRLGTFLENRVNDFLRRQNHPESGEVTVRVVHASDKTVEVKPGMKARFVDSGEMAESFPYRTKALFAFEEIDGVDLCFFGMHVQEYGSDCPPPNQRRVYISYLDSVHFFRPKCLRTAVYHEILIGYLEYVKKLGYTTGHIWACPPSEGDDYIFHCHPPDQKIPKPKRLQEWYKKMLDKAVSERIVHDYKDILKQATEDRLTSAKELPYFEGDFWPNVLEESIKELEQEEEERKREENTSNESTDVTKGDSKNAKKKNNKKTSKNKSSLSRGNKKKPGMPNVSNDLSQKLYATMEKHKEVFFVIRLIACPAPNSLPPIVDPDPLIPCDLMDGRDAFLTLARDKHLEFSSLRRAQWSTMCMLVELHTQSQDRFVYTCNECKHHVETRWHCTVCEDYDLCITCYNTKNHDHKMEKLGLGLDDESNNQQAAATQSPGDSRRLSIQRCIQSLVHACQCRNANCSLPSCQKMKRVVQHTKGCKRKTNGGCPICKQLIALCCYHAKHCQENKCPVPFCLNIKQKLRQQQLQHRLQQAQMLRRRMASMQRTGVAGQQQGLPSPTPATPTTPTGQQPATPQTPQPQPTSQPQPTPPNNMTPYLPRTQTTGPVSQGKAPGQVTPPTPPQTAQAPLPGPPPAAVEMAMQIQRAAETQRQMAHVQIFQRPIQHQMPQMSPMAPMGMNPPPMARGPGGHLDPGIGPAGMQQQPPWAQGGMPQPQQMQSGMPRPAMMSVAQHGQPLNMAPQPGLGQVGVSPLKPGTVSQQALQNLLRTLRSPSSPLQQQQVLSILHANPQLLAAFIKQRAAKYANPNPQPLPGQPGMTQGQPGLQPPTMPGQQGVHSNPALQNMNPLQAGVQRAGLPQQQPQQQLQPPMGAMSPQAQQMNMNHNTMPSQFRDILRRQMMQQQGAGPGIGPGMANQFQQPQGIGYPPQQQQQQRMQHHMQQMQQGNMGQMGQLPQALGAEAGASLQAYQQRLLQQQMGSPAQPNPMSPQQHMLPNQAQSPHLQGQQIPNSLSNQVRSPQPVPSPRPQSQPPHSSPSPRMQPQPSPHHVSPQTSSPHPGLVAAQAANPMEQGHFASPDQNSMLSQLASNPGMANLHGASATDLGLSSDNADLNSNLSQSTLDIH
UniProt P01108: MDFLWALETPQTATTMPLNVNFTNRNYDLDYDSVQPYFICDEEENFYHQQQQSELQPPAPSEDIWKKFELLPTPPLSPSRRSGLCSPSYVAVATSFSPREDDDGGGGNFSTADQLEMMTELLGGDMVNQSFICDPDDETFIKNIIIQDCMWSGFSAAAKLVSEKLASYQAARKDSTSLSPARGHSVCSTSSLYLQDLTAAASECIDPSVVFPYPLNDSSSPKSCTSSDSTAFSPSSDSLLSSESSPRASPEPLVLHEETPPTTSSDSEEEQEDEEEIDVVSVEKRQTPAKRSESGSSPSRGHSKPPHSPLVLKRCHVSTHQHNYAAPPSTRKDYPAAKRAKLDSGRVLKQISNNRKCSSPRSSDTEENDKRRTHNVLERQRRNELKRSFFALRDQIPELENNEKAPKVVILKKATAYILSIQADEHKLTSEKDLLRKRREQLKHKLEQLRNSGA

In one experiment the target is T1, p300 (mouse, UniProt B2RWS6 2-2412).
T1 construct: whole, on cells; Endogenous protein inside fixed, permeabilised LPS-stimulated mouse spleen B cells; It was detected through a DNA barcode-labeled antibody (clone RW128)
Kind of experiment: joining PCR of DNA barcode-labeled antibodies in hydrogel with NGS; LPS-stimulated mouse spleen B cells.

The next experiment concerns the target c-Myc (mouse) (UniProt P01108). The experiment is described as above.

Results are given in words; binding and its absence hold for the method and conditions named. Some results given as binding are weak or reduced against the parent protein; the word gives no strength.

In the case of c-Myc (from UniProt P01108 1-454), the binding result with p300 was “binds”.

B1: Lamin B1 (other, mouse, UniProt P14733 2-585, looked up)
chain: ATATPVQQQRAGSRASAPATPLSPTRLSRLQEKEELRELNDRLAVYIDKVRSLETENSALQLQVTEREEVRGRELTGLKALYETELADARRALDDTARERAKLQIELGKFKAEHDQLLLNYAKKESDLSGAQIKLREYEAALNSKDAALATALGDKKSLEGDLEDLKDQIAQLEASLSAAKKQLADETLLKVDLENRCQSLTEDLEFRKNMYEEEINETRRKHETRLVEVDSGRQIEYEYKLAQALHEMREQHDAQVRLYKEELEQTYHAKLENARLSSEMNTSTVNSAREELMESRMRIESLSSQLSNLQKESRACLERIQELEDMLAKERDNSRRMLSDREREMAEIRDQMQQQLSDYEQLLDVKLALDMEISAYRKLLEGEEERLKLSPSPSSRVTVSRASSSRSVRTTRGKRKRVDVEESEASSSVSISHSASATGNVCIEEIDVDGKFIRLKNTSEQDQPMGGWEMIRKIGDTSVSYKYTSRYVLKAGQTVTVWAANAGVTASPPTDLIWKNQNSWGTGEDVKVILKNSQGEEVAQRSTVFKTTIPEEEEEEEEEPIGVAVEEERFHQQGAPRASNKSC
notes: whole, on cells; Endogenous protein inside fixed, permeabilised LPS-stimulated mouse spleen B cells; It was detected through a DNA barcode-labeled antibody (clone L-5)
B1: in the experiment with c-Myc (mouse), the binding result is recorded as “binds”.
